Measured values from article PMC9120066.
Results are given in words; binding and its absence hold for the method and conditions named. In cells and extracts the contact can be indirect. Some binding calls cover weakened binding; strength is not graded here. For some assays here: Tags and fused reporters may be left off the sequences shown.

T1: Flag-SH2B3, Q9UQQ2
T1 chain: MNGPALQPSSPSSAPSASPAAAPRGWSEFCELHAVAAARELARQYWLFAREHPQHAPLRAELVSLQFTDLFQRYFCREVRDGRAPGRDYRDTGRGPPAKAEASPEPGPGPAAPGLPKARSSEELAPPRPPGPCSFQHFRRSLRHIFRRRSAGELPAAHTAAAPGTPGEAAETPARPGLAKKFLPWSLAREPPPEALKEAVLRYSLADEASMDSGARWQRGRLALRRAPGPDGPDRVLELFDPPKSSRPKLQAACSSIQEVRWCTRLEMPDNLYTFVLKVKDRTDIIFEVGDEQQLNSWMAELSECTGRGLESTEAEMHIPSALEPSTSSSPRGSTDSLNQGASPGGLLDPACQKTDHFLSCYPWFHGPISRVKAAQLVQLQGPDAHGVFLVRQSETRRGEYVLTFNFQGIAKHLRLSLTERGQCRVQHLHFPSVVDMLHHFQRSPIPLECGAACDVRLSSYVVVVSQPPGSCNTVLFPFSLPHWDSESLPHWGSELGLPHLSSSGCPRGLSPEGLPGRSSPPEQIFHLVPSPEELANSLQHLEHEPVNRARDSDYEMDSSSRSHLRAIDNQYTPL

T2: SH2B3 (endogenous) (human (endogenous in lung cancer cells)), Q9UQQ2
T2 chain: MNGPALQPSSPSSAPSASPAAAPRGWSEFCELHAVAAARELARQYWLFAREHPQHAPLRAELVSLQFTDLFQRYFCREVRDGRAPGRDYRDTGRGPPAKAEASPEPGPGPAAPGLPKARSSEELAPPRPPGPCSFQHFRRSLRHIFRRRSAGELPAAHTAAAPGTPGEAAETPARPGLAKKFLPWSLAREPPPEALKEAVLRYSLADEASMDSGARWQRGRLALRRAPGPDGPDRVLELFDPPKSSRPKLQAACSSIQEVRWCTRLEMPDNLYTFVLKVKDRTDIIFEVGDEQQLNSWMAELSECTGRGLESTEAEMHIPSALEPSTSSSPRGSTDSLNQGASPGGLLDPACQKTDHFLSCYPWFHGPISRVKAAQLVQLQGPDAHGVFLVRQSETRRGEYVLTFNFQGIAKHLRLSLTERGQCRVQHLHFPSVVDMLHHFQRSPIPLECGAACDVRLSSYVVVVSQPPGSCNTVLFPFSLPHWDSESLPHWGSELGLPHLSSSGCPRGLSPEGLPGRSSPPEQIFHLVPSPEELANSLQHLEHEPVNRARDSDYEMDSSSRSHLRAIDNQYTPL


What was measured:
Flag-SH2B3, Q9UQQ2 = molecular target: T1, Flag-SH2B3, Q9UQQ2; test: co-IP; lysate of lung cancer cells co-transfected with Flag-SH2B3 and Myc-JAK2 or Myc-SHP2; anti-Flag antibody 1 h at 4 °C, Protein-A Sepharose beads overnight at 4 °C; western blot; details: remark: other sources report otherwise
[1] = molecular target: T2, SH2B3 (endogenous) (human (endogenous …)); test: co-IP; lysate of naive lung cancer cells; anti-SH2B3 antibody 1 h at 4 °C, Protein-A Sepharose beads overnight at 4 °C; western blot of the endogenous partner; details: remark: other sources report otherwise

| binding (Flag-SH2B3, Q9UQQ2) | binding [1] | Binder |
| --- | --- | --- |
| binds |  | Myc-JAK2, O60674 1-1132 (protein) MGMACLTMTEMEGTSTSSIYQNGDISGNANSMKQIDPVLQVYLYHSLGKSEADYLTFPSGEYVAEEICIAASKACGITPVYHNMFALMSETERIWYPPNHVFHIDESTRHNVLYRIRFYFPRWYCSGSNRAYRHGISRGAEAPLLDDFVMSYLFAQWRHDFVHGWIKVPVTHETQEECLGMAVLDMMRIAKENDQTPLAIYNSISYKTFLPKCIRAKIQDYHILTRKRIRYRFRRFIQQFSQCKATARNLKLKYLINLETLQSAFYTEKFEVKEPGSGPSGEEIFATIIITGNGGIQWSRGKHKESETLTEQDLQLYCDFPNIIDVSIKQANQEGSNESRVVTIHKQDGKNLEIELSSLREALSFVSLIDGYYRLTADAHHYLCKEVAPPAVLENIQSNCHGPISMDFAISKLKKAGNQTGLYVLRCSPKDFNKYFLTFAVERENVIEYKHCLITKNENEEYNLSGTKKNFSSLKDLLNCYQMETVRSDNIIFQFTKCCPPKPKDKSNLLVFRTNGVSDVPTSPTLQRPTHMNQMVFHKIRNEDLIFNESLGQGTFTKIFKGVRREVGDYGQLHETEVLLKVLDKAHRNYSESFFEAASMMSKLSHKHLVLNYGVCVCGDENILVQEFVKFGSLDTYLKKNKNCINILWKLEVAKQLAWAMHFLEENTLIHGNVCAKNILLIREEDRKTGNPPFIKLSDPGISITVLPKDILQERIPWVPPECIENPKNLNLATDKWSFGTTLWEICSGGDKPLSALDSQRKLQFYEDRHQLPAPKWAELANLINNCMDYEPDFRPSFRAIIRDLNSLFTPDYELLTENDMLPNMRIGALGFSGAFEDRDPTQFEERHLKFLQQLGKGNFGSVEMCRYDPLQDNTGEVVAVKKLQHSTEEHLRDFEREIEILKSLQHDNIVKYKGVCYSAGRRNLKLIMEYLPYGSLRDYLQKHKERIDHIKLLQYTSQICKGMEYLGTKRYIHRDLATRNILVENENRVKIGDFGLTKVLPQDKEYYKVKEPGESPIFWYAPESLTESKFSVASDVWSFGVVLYELFTYIEKSKSPPAEFMRMIGNDKQGQMIVFHLIELLKNNGRLPRPDGCPDEIYMIMTECWNNNVNQRPSFRDLALRVDQIRDNMAG |
|  | binds | JAK2 (endogenous), O60674 1-1132 (protein) MGMACLTMTEMEGTSTSSIYQNGDISGNANSMKQIDPVLQVYLYHSLGKSEADYLTFPSGEYVAEEICIAASKACGITPVYHNMFALMSETERIWYPPNHVFHIDESTRHNVLYRIRFYFPRWYCSGSNRAYRHGISRGAEAPLLDDFVMSYLFAQWRHDFVHGWIKVPVTHETQEECLGMAVLDMMRIAKENDQTPLAIYNSISYKTFLPKCIRAKIQDYHILTRKRIRYRFRRFIQQFSQCKATARNLKLKYLINLETLQSAFYTEKFEVKEPGSGPSGEEIFATIIITGNGGIQWSRGKHKESETLTEQDLQLYCDFPNIIDVSIKQANQEGSNESRVVTIHKQDGKNLEIELSSLREALSFVSLIDGYYRLTADAHHYLCKEVAPPAVLENIQSNCHGPISMDFAISKLKKAGNQTGLYVLRCSPKDFNKYFLTFAVERENVIEYKHCLITKNENEEYNLSGTKKNFSSLKDLLNCYQMETVRSDNIIFQFTKCCPPKPKDKSNLLVFRTNGVSDVPTSPTLQRPTHMNQMVFHKIRNEDLIFNESLGQGTFTKIFKGVRREVGDYGQLHETEVLLKVLDKAHRNYSESFFEAASMMSKLSHKHLVLNYGVCVCGDENILVQEFVKFGSLDTYLKKNKNCINILWKLEVAKQLAWAMHFLEENTLIHGNVCAKNILLIREEDRKTGNPPFIKLSDPGISITVLPKDILQERIPWVPPECIENPKNLNLATDKWSFGTTLWEICSGGDKPLSALDSQRKLQFYEDRHQLPAPKWAELANLINNCMDYEPDFRPSFRAIIRDLNSLFTPDYELLTENDMLPNMRIGALGFSGAFEDRDPTQFEERHLKFLQQLGKGNFGSVEMCRYDPLQDNTGEVVAVKKLQHSTEEHLRDFEREIEILKSLQHDNIVKYKGVCYSAGRRNLKLIMEYLPYGSLRDYLQKHKERIDHIKLLQYTSQICKGMEYLGTKRYIHRDLATRNILVENENRVKIGDFGLTKVLPQDKEYYKVKEPGESPIFWYAPESLTESKFSVASDVWSFGVVLYELFTYIEKSKSPPAEFMRMIGNDKQGQMIVFHLIELLKNNGRLPRPDGCPDEIYMIMTECWNNNVNQRPSFRDLALRVDQIRDNMAG |
